{"sequences": {"note": "Protein sequences, listed by entry. Tags and fused reporters are not part of them. Lines headed by an entry give the natural chain unless they say otherwise; changes in a name come on top. Chains listed by the source or under a name are the forms on record and can include a tag or linker.", "recombinant TROP2-His*6 antigen (P09758, form named)": "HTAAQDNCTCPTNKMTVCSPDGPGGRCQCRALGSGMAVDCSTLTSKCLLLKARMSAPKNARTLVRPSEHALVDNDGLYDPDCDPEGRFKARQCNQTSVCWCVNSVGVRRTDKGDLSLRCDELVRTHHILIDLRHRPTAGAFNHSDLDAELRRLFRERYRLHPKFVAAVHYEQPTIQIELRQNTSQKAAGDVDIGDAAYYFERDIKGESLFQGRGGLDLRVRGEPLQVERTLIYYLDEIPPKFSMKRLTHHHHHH"}, "source": "patent US20250205349A1", "about": "“ANTI-HUMAN TROP2 ANTIBODY-CAMPTOTHECIN DRUG CONJUGATE AND MEDICAL USE THEREOF” (SYSTIMMUNE, INC., priority 2021, published 2025)", "target": "recombinant TROP2-His*6 antigen (UniProt P09758)", "experiment": "ELISA; TROP2-His*6 coated on plate, goat anti-human Fc-HRP detection, OD450", "note": "These are yes or no findings as the source states them, for the method shown. Some entries that bind do so weakly or less than the wild type.", "data": [{"binder": "antibody hu4D3 (antibody, human IgG1, kappa, V domains shown) VH: QVQLVQSGAEVKKPGASVKLSCKASGYTFTSFDINWVRQAPEQRLEWMGWIFPGDGNTKYSQKFQGRATITRDTSASTAYMELSSLRSEDTAVYYCVRGEALYYFDYWGQGTLVTVSS VL: DIQMTQSPSSLSASVGDRVTITCRASQDINKYLAWYQQKPGKVPKLLIYSTSTLQSGVPSRFSGSGSGTDFTLTISSLQPEDVATYYCLQYDDLFTFGQGTKLEIKR", "values": [{"measurement": "binding", "value": "binds"}]}]}
